The text below walks through data of publication PMC9925821.

The chains behind the UniProt entries cited, without tags or fusion partners. Where a name states a change or a piece, a line headed by the entry shows the natural chain unless it says otherwise.
UniProt Q96KN1: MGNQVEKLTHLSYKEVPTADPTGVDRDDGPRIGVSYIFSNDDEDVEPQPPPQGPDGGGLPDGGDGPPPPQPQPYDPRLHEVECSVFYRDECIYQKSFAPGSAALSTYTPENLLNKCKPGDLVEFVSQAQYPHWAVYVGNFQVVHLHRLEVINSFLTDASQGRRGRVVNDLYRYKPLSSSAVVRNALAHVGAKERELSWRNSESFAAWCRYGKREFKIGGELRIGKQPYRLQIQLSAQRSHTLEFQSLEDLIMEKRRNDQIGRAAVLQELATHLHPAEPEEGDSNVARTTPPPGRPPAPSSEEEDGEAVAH
UniProt Q8TCG2: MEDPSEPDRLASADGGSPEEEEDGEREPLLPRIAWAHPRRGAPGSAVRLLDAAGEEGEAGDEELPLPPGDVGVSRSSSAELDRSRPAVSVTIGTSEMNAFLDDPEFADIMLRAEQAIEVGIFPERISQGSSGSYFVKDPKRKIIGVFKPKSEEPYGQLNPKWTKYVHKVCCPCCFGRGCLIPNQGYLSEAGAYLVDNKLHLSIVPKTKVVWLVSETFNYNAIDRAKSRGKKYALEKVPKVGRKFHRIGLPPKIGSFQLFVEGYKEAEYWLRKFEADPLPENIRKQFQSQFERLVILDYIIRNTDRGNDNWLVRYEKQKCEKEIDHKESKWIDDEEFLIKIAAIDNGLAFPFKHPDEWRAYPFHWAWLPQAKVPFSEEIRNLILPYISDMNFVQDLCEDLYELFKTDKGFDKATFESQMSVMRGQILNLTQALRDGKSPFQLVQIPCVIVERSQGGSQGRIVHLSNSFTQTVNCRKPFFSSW
UniProt P62491: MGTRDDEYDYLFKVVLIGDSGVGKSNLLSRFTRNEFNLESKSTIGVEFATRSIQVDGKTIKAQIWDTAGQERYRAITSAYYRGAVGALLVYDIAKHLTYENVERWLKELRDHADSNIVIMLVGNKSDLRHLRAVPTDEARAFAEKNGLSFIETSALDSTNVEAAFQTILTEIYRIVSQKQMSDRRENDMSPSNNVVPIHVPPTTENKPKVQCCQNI

Results are given in words; binding and its absence hold for the method and conditions named. In cells and extracts the contact can be indirect. Here binding means that the protein was enriched with, or labelled near, the bait; the list need not be complete. Where a sequence is shown, tags or fusion partners need not be part of it.

The assay has as its target T1, Flag-FKBP51 (True-ORF-Myc-DDK (Flag)-tagged human FKBP51-transcript variant 1) (human) (UniProt Q13451).
T1 sequence: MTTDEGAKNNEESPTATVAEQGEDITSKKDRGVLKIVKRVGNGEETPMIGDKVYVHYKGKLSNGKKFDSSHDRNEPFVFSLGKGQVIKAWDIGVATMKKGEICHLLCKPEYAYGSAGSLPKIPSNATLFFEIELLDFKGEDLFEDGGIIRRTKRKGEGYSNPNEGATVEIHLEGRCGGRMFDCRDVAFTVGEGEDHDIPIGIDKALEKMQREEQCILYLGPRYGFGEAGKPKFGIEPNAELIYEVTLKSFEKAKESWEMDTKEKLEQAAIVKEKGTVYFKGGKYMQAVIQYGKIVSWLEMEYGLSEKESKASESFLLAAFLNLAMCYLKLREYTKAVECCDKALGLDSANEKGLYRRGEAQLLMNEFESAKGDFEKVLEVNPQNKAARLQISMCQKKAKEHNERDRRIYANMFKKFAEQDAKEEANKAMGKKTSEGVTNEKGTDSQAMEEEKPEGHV
The assay is described as follows: affinity purification with mass spectrometry; Flag-FKBP51 immunopurified from transfected A375 cells (with or without PHLPP over-representation) on anti-DYKDDDDK magnetic agarose, SDS-PAGE, in-gel trypsin digestion, nanoLC-ESI-Q-Orbitrap-MS/MS; empty vector as control.
Consider NSE2 (from UniProt Q96KN1), for which the binding result was “binds”. Then PI4K2B (from UniProt Q8TCG2 1-481), with “binds”. Then Rab11a (from UniProt P62491 1-216), with “binds”.
